According to the supplement of paper PMC10849652:
The list shows a part of the results.

Sequences of proteins named here, by UniProt entry; tags and fusion partners are left off. A change or cut given only in a name is not applied to a line headed by its entry.
UniProt Q00839, whole entry, looked up: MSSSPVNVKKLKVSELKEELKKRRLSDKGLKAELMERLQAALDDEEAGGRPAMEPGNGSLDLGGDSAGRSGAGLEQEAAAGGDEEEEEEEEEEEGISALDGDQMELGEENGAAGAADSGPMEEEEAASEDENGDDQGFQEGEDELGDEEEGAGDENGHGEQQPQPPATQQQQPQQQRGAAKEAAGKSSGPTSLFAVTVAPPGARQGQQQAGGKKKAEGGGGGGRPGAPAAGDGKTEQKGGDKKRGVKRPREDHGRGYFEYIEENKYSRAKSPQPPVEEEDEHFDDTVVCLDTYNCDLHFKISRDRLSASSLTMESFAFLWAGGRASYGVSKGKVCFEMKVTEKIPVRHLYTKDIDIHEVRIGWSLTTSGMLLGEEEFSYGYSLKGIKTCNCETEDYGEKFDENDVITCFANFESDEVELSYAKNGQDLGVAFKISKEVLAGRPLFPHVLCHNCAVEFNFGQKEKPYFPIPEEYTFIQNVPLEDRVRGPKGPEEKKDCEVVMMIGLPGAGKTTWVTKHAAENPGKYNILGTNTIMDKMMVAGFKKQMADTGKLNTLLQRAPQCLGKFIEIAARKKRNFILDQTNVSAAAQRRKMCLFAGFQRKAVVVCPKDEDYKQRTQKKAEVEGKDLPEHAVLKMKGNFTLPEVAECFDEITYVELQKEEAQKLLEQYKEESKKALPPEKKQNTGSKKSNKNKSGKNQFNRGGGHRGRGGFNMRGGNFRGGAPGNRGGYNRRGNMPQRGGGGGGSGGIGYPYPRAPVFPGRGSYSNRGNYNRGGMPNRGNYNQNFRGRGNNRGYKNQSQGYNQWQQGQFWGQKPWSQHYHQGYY
UniProt Q6NVY1: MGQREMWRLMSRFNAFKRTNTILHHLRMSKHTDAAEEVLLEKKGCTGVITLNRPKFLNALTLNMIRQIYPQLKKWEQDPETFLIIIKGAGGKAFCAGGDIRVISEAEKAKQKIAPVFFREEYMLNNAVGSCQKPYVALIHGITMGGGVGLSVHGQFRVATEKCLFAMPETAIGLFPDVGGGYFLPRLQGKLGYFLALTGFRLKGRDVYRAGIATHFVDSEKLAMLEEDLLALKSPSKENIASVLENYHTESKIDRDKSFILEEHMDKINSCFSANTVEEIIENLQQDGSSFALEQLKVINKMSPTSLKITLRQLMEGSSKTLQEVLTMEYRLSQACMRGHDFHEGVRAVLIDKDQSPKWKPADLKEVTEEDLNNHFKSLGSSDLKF
UniProt P09651: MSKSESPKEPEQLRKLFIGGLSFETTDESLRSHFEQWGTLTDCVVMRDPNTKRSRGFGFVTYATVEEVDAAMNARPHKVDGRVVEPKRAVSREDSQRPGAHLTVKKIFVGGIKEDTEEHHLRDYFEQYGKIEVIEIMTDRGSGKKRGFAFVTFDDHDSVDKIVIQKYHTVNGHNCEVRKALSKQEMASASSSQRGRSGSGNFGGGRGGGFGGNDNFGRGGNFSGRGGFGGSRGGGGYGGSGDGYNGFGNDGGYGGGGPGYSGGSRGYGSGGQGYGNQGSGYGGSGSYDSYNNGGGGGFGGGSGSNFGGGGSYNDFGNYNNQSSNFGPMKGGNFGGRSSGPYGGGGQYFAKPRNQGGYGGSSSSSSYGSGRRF
UniProt P30519: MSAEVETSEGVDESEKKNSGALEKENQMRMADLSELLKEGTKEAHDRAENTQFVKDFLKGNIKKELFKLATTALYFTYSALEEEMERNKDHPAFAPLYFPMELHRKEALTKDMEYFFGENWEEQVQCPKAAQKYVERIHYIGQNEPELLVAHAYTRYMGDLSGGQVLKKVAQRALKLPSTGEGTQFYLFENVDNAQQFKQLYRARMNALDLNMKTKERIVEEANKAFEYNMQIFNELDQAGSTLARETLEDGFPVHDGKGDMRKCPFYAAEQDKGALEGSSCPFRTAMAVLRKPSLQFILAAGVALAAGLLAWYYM
UniProt Q86VS8: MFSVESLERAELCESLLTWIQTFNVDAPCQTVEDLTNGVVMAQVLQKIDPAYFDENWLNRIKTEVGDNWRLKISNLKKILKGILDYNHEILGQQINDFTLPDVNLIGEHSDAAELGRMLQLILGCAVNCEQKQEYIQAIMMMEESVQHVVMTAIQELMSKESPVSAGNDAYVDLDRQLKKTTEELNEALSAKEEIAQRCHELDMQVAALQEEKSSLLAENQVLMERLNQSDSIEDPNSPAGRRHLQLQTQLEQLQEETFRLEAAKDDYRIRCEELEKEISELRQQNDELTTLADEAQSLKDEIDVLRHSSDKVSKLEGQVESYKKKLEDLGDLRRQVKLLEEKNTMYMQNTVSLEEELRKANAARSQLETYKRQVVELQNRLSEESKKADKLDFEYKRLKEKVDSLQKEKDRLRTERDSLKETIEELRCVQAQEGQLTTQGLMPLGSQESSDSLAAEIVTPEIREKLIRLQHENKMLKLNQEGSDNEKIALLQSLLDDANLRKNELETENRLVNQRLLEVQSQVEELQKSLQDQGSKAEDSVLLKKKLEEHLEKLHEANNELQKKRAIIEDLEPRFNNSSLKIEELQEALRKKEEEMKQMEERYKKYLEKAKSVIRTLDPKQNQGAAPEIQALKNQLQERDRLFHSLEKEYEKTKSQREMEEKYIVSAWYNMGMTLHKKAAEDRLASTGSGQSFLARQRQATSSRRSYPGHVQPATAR
UniProt P31937: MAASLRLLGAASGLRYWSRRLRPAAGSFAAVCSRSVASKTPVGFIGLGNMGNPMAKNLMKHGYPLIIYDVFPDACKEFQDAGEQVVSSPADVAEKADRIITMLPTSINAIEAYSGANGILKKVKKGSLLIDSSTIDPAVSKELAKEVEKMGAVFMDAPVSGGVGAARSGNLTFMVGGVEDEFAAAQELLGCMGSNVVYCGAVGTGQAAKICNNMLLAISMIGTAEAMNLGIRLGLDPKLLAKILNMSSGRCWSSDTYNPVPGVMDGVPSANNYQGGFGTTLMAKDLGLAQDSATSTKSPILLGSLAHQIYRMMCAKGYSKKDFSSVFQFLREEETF
UniProt Q96JB3: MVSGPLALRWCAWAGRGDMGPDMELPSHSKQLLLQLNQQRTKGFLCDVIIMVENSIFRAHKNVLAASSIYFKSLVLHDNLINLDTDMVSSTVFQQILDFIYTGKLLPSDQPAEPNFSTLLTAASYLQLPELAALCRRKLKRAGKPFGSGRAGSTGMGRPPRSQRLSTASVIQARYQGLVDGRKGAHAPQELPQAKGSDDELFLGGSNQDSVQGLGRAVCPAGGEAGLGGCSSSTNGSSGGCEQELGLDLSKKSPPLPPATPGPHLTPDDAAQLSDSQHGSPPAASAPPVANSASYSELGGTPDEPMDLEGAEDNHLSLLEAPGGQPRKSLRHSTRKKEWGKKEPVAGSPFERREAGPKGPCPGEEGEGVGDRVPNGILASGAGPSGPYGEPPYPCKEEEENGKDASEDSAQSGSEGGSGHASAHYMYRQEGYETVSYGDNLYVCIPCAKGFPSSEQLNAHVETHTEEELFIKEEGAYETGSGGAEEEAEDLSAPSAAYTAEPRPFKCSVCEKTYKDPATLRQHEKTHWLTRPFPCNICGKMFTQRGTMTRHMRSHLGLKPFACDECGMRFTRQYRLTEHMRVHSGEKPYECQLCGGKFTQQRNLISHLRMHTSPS
UniProt P11021: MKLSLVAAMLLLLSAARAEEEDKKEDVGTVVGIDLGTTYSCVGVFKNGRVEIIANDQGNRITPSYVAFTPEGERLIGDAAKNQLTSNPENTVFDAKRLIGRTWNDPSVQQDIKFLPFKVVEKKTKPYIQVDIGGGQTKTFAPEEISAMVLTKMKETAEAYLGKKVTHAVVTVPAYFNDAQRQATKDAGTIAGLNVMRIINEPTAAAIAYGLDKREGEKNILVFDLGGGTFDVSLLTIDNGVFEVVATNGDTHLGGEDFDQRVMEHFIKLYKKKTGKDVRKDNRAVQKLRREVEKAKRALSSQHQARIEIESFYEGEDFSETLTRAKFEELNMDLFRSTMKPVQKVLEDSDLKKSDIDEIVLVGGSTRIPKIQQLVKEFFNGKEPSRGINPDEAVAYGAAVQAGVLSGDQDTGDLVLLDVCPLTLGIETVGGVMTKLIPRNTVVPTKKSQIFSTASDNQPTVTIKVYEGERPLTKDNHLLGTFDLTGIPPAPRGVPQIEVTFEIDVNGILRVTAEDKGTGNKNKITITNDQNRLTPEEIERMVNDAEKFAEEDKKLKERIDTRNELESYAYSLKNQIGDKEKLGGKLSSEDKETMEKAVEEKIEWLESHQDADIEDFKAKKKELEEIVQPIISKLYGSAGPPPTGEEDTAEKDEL
UniProt P38646: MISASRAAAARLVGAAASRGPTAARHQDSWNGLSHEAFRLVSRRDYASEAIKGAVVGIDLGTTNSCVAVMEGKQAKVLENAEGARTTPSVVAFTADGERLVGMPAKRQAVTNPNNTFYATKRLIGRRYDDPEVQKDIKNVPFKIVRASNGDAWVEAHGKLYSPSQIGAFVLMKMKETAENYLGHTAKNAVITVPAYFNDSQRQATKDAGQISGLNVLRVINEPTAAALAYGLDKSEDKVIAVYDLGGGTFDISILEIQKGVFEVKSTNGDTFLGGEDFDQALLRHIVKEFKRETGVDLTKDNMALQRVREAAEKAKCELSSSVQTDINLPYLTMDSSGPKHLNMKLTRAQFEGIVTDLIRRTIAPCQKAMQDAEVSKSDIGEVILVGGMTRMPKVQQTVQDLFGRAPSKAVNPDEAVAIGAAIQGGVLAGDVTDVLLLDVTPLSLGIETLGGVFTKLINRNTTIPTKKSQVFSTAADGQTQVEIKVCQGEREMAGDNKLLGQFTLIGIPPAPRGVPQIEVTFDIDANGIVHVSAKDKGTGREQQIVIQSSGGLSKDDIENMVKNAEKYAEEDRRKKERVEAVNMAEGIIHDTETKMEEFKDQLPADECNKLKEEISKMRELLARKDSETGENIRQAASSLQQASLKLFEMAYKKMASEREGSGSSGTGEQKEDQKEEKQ
UniProt O43464: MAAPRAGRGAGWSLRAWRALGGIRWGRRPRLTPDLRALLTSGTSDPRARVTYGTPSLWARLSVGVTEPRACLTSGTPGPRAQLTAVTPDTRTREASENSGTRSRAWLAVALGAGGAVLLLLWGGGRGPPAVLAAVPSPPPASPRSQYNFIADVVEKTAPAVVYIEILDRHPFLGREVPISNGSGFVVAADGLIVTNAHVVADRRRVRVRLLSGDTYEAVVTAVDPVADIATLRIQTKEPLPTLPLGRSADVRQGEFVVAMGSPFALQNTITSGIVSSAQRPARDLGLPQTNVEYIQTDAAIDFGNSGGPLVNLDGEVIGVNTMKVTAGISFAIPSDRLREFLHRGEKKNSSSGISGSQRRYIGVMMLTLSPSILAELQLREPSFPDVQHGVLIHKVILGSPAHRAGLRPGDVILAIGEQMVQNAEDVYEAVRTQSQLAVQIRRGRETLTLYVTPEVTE
UniProt P17096: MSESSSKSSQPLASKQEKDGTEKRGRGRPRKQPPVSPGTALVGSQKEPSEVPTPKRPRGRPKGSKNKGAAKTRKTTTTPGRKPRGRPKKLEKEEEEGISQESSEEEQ
UniProt P04792, whole entry, looked up: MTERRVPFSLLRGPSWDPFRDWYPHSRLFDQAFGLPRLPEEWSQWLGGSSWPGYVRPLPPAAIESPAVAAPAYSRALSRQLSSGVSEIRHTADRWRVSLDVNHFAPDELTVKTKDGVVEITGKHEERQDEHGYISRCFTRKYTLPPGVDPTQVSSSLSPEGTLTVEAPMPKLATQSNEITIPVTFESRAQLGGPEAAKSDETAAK
UniProt Q9BX68: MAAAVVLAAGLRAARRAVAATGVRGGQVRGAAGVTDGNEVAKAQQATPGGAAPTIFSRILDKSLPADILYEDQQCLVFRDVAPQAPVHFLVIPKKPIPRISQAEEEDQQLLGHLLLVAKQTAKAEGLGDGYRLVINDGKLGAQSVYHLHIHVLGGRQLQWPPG
UniProt P31942: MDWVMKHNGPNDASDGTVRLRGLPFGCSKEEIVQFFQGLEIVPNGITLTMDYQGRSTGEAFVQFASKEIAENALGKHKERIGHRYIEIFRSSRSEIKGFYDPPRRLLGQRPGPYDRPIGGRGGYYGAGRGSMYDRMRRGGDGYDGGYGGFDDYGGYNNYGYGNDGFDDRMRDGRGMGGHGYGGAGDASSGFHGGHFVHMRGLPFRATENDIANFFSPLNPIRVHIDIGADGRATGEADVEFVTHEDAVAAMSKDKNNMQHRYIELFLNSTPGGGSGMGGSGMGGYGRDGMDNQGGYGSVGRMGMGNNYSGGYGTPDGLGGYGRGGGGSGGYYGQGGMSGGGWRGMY
UniProt Q14103: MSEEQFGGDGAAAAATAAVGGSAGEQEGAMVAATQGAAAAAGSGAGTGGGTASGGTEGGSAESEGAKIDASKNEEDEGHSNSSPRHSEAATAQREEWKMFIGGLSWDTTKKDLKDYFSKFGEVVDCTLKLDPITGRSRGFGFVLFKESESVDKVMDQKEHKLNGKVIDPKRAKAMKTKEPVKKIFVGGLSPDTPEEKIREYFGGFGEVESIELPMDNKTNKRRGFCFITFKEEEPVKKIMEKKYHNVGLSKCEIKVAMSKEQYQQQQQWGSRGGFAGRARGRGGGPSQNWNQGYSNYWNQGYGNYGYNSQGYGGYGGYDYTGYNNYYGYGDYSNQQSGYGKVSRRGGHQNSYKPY

Compound: Cc1ccc(NC(=O)c2ccc(CN3CC[C@H](N(C)C)C3)c(C(F)(F)F)c2)cc1Nc1nccc(-c2cncnc2)n1 [bafetinib]
Experiment: log2 fold change, soluble protein after heating vs DMSO (PISA); higher = thermal stabilisation; K562 cells, 10 uM, 30 min; active = over 0.2 and 3.5 SD of the protein, either way, in both replicates (recomputed)
Outline: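 K562 cells at 2×10^6 cells/mL were exposed to 10 μM compound for 30 min, then aliquots were heated for 3 min across 48°C-58°C, pooled, and extracted in PBS containing 0.5% NP-40 at 4°C. The supernatant after 21,000xg for 90 min was taken as soluble protein and measured by TMTpro 16plex LC-MS/MS with channel sums equalised. Thermal stability is reported relative to control samples, with values from duplicates. Fold changes are given on a log2 scale.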

log2 fold change, inactive:
HNRNPK isoform 2 (UniProt P61978) -0.03, HNRNPU (UniProt Q00839) 0.126, HSPA13 (UniProt P48723) -0.03, HNRNPR isoform 2 (UniProt O43390) 0.041, HIST2H3A (UniProt Q71DI3) 0.198, HIBCH (UniProt Q6NVY1) 0.011, HNRNPA1 (UniProt P09651) 0.159, HMOX2 (UniProt P30519) 0.006, HOOK3 (UniProt Q86VS8) -0.047, HIBADH (UniProt P31937) -0.012, HMGN4 (UniProt O00479) 0.061, HIC2 (UniProt Q96JB3) 0.065, HMGCS1 (UniProt Q01581) -0.067, HLTF (UniProt Q14527) -0.003, HSPA1L (UniProt P34931) -0.073, HSPA5 (UniProt P11021) 0.001, HSPA9 (UniProt P38646) -0.109, HTRA2 (UniProt O43464) -0.087, HMGA1 (UniProt P17096) 0.15, HSPB1 (UniProt P04792) 0.023, HINT2 (UniProt Q9BX68) -0.015, HNRNPH3 (UniProt P31942) 0.052, HNRNPD (UniProt Q14103) 0.104
